Laboratory results published in publication PMC6815964.
Results are given in words; binding and its absence hold for the method and conditions named. For some assays here: In cells and extracts the contact can be indirect. Some results given as binding are weak or reduced against the parent protein; the word gives no strength.

Amino acid sequences for entries named in this document (tags omitted).
UniProt Q92793: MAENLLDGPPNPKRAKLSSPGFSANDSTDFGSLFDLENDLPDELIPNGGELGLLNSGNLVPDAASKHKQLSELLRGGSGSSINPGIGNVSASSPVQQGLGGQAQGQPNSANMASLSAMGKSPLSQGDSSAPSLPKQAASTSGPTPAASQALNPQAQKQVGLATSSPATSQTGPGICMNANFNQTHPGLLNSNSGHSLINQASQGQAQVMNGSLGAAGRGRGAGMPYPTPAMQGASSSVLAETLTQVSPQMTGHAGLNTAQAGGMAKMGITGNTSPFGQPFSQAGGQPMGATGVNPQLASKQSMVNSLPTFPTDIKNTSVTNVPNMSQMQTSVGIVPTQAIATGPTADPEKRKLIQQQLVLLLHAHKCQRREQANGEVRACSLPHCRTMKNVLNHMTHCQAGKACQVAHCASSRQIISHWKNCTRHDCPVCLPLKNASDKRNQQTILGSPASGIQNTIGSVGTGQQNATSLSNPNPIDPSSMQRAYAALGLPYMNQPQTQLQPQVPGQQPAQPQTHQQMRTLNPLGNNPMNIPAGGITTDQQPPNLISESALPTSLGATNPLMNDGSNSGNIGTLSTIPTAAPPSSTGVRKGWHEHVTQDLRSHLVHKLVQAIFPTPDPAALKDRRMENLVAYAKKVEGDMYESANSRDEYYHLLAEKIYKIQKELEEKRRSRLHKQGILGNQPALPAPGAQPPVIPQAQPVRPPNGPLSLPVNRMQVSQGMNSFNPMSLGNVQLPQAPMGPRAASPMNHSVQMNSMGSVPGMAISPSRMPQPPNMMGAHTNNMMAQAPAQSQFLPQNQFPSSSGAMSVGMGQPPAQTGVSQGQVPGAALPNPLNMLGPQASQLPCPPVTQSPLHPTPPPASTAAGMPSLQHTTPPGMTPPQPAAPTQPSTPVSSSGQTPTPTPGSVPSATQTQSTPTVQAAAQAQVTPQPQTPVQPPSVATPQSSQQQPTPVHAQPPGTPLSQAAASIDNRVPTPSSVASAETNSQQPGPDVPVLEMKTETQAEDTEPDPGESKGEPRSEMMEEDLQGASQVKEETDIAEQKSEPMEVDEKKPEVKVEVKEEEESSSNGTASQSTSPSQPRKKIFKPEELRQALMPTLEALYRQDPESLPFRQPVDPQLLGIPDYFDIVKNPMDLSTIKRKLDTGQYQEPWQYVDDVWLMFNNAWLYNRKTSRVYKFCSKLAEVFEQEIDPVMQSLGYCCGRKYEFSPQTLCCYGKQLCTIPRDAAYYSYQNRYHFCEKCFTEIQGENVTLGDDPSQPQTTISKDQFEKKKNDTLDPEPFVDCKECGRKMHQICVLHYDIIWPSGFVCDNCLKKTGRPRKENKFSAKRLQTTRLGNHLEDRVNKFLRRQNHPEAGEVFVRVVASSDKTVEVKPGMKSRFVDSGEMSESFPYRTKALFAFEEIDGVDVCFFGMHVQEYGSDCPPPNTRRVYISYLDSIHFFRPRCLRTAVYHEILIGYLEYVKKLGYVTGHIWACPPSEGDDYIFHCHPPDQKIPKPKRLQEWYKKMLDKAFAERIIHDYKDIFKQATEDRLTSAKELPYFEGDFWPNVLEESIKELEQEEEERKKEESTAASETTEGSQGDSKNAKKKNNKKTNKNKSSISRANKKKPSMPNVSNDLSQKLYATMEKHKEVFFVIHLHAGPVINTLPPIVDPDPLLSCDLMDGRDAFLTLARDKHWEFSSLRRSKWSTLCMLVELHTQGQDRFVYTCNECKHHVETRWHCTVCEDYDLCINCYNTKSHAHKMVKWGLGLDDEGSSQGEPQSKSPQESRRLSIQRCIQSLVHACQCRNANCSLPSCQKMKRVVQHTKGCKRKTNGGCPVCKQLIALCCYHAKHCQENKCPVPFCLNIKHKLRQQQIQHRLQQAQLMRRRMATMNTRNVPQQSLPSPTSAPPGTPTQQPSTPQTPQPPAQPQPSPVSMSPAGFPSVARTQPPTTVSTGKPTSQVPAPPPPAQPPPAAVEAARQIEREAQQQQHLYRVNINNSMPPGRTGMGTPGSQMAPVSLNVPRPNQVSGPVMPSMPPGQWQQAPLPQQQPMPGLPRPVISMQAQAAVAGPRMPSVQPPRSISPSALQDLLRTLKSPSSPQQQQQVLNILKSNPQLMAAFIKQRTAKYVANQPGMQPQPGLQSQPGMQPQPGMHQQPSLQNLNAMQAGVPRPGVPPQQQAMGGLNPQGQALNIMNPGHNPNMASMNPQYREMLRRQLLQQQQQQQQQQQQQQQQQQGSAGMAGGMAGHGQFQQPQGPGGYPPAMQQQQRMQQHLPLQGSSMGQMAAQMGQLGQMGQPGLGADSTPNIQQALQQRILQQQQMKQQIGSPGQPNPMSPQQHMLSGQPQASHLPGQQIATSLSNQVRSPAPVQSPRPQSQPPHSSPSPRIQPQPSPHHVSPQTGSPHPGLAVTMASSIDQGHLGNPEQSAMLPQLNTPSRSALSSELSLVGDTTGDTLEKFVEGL
UniProt Q09472: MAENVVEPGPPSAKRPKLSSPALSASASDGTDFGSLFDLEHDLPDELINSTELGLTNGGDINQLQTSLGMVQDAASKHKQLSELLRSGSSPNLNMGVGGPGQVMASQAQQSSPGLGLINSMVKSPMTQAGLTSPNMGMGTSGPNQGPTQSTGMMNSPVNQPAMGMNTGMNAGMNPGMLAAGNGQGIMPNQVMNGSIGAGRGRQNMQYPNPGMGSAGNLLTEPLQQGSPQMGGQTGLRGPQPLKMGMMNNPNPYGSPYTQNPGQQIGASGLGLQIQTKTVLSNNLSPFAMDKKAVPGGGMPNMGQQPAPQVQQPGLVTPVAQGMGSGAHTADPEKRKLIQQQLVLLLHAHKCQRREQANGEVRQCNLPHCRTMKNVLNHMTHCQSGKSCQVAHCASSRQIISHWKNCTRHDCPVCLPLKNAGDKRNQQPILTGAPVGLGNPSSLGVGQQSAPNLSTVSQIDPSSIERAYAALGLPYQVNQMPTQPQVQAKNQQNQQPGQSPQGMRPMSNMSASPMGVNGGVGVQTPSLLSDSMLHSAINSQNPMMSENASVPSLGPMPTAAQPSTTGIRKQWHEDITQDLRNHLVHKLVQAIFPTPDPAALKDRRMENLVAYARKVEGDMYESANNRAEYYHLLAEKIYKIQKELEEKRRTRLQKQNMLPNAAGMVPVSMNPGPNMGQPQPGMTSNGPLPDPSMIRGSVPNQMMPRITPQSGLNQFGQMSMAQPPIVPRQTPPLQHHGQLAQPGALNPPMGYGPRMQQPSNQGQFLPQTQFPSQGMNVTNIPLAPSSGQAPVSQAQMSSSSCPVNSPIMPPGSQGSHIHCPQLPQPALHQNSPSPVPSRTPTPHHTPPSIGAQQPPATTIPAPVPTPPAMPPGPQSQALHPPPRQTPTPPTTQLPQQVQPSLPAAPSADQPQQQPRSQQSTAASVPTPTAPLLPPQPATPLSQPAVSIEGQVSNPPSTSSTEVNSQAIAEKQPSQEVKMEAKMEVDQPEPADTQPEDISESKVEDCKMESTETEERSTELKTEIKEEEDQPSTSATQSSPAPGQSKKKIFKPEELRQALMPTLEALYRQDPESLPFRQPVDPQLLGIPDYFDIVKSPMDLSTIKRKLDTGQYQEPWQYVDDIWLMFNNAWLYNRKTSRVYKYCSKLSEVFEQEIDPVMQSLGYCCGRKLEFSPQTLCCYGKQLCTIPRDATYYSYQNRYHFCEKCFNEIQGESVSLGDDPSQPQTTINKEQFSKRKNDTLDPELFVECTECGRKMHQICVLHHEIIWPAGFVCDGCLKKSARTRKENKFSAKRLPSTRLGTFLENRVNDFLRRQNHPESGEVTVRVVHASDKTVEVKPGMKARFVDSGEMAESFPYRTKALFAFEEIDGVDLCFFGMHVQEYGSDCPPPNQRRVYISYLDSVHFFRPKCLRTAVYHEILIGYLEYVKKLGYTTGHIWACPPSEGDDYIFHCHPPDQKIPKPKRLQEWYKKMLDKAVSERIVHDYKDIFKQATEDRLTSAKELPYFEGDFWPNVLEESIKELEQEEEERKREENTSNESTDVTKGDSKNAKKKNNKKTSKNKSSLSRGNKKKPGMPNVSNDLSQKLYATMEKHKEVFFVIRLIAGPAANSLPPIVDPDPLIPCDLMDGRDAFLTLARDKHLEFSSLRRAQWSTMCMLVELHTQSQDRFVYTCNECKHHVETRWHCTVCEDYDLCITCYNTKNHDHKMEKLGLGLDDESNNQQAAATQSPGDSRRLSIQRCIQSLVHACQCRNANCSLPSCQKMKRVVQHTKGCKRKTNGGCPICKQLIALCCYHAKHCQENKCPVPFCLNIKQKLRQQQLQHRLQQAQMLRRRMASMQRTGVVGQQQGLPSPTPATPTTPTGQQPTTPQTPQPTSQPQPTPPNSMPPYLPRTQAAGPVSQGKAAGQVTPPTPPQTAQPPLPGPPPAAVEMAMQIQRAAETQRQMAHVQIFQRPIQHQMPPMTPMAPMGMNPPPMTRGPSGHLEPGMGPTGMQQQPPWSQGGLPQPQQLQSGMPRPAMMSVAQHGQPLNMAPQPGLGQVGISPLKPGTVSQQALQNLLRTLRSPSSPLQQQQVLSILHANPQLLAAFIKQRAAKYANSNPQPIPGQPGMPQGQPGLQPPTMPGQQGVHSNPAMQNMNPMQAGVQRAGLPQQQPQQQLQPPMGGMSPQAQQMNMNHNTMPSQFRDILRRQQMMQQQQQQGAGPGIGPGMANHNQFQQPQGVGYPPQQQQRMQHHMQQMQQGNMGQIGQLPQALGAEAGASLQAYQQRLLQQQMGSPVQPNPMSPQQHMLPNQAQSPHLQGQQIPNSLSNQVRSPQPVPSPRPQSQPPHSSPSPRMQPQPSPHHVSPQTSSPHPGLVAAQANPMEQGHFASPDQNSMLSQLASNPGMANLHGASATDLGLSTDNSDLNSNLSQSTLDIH

How the values were obtained:
[1] = substrate: CBP (human (endogenous in MCF-7 and MDA-MB231)) (UniProt Q92793); test: ChIP-reChIP; MCF-7 cells transfected with CapG, cross-linked with 1% formaldehyde, chromatin sheared; sequential IP with anti-CapG then anti-CBP; qPCR of the PIK3R1/P50 promoter
[2] = target: p300 (human (endogenous in MCF-7 and MDA-MB231)) (UniProt Q09472); test: co-IP; co-IP of CapG and p300 (Figure S7B, not shown); precipitating antibody and cell line not told in the text shown
[3] = substrate: CBP (human (endogenous in MCF-7 and MDA-MB231)) (UniProt Q92793); test: co-IP; MCF-7/CapG and MDA-MB231 cell lysates immunoprecipitated with anti-CBP or control; precipitates immunoblotted

Row | Binder | binding [1] | binding [2] | binding [3]
1 | Macrophage-capping protein (CapG), ectopically expressed in MCF-7 cells (protein, UniProt P40121 1-348) MYTAIPQSGSPFPGSVQDPGLHVWRVEKLKPVPVAQENQGVFFSGDSYLVLHNGPEEVSHLHLWIGQQSSRDEQGACAVLAVHLNTLLGERPVQHREVQGNESDLFMSYFPRGLKYQEGGVESAFHKTSTGAPAAIKKLYQVKGKKNIRATERALNWDSFNTGDCFILDLGQNIFAWCGGKSNILERNKARDLALAIRDSERQGKAQVEIVTDGEEPAEMIQVLGPKPALKEGNPEEDLTADKANAQAAALYKVSDATGQMNLTKVADSSPFALELLISDDCFVLDNGLCGKIYIWKGRKANEKERQAALQVAEGFISRMQYAPNTQVEILPQGHESPIFKQFFKDWK | binds | binds | binds
2 | Macrophage-capping protein (CapG), endogenous in MDA-MB231 cells (protein, UniProt P40121 1-348) MYTAIPQSGSPFPGSVQDPGLHVWRVEKLKPVPVAQENQGVFFSGDSYLVLHNGPEEVSHLHLWIGQQSSRDEQGACAVLAVHLNTLLGERPVQHREVQGNESDLFMSYFPRGLKYQEGGVESAFHKTSTGAPAAIKKLYQVKGKKNIRATERALNWDSFNTGDCFILDLGQNIFAWCGGKSNILERNKARDLALAIRDSERQGKAQVEIVTDGEEPAEMIQVLGPKPALKEGNPEEDLTADKANAQAAALYKVSDATGQMNLTKVADSSPFALELLISDDCFVLDNGLCGKIYIWKGRKANEKERQAALQVAEGFISRMQYAPNTQVEILPQGHESPIFKQFFKDWK | – | binds | binds
